Data on 38 targets can be found in the supplement of paper PMC12067093, “Discovery and optimisation of a covalent ligand for TRIM25 and its application to targeted protein ubiquitination” (Chemical Science, 2025).

Sequences of proteins named here, by UniProt entry; tags and fusion partners are left off. A change or cut given only in a name is not applied to a line headed by its entry.
UniProt P52888, whole entry, looked up: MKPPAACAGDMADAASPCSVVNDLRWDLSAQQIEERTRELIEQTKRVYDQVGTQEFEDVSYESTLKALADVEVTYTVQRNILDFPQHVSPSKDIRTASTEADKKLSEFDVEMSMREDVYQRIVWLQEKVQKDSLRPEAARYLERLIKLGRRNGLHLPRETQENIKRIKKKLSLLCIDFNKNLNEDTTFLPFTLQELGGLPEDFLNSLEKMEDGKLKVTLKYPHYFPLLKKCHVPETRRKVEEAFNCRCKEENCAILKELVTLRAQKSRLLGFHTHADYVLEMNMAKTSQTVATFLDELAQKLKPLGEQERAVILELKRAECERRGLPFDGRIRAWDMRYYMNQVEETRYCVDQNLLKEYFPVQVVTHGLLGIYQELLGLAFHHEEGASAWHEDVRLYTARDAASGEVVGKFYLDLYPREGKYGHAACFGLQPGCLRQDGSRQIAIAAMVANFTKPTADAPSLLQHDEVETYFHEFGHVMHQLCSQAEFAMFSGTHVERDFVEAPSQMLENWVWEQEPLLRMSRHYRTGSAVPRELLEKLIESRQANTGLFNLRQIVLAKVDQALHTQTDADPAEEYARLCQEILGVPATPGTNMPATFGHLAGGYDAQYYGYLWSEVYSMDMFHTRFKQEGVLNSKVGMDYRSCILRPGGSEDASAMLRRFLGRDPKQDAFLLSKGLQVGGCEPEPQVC
UniProt O60830: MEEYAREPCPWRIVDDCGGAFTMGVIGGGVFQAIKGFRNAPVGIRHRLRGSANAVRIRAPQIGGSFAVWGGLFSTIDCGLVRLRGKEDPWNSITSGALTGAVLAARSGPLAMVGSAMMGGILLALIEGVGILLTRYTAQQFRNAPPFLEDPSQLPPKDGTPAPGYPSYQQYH
UniProt Q9UPZ6: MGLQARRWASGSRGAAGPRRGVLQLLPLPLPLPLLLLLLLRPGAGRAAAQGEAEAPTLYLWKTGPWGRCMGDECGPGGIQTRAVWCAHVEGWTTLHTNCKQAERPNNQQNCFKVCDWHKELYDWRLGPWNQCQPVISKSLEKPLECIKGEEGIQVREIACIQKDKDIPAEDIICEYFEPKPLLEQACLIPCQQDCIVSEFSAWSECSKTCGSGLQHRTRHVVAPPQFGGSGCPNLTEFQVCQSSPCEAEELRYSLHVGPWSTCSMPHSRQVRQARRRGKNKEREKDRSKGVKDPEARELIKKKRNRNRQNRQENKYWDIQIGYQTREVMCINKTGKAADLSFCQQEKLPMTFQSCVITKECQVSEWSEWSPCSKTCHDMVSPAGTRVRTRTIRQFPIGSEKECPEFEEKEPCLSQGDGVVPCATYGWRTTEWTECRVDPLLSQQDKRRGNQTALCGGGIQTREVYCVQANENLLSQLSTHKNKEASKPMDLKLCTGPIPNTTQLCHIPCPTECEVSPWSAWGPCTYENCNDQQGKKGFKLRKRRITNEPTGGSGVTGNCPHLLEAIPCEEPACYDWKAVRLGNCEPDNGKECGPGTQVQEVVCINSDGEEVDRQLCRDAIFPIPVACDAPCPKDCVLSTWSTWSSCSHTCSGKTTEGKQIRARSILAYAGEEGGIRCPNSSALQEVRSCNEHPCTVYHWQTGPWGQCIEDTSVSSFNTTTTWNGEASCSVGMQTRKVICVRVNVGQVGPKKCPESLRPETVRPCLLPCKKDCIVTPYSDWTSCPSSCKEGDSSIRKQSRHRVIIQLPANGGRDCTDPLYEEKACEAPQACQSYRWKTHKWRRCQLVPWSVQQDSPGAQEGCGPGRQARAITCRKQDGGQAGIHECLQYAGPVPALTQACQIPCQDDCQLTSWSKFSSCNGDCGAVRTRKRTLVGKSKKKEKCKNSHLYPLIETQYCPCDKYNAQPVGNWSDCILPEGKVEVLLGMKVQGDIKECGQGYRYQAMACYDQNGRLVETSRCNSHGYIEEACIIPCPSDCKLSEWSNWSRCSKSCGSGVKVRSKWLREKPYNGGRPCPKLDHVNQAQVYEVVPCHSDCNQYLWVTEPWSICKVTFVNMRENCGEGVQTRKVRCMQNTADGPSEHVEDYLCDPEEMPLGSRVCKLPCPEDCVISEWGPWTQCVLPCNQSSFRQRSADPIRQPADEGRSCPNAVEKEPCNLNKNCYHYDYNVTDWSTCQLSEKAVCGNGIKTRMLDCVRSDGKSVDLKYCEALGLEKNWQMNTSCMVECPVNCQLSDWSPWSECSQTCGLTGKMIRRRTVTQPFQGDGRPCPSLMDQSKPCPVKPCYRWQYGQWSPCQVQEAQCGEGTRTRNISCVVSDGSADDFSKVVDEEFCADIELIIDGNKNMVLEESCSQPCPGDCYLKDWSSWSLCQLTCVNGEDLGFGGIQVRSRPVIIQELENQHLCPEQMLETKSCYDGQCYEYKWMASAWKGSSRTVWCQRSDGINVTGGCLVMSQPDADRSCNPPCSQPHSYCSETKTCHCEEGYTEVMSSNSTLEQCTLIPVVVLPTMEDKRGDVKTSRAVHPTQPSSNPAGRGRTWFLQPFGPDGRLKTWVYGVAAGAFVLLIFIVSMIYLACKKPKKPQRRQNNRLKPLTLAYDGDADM
UniProt Q9Y4R8, whole entry, looked up: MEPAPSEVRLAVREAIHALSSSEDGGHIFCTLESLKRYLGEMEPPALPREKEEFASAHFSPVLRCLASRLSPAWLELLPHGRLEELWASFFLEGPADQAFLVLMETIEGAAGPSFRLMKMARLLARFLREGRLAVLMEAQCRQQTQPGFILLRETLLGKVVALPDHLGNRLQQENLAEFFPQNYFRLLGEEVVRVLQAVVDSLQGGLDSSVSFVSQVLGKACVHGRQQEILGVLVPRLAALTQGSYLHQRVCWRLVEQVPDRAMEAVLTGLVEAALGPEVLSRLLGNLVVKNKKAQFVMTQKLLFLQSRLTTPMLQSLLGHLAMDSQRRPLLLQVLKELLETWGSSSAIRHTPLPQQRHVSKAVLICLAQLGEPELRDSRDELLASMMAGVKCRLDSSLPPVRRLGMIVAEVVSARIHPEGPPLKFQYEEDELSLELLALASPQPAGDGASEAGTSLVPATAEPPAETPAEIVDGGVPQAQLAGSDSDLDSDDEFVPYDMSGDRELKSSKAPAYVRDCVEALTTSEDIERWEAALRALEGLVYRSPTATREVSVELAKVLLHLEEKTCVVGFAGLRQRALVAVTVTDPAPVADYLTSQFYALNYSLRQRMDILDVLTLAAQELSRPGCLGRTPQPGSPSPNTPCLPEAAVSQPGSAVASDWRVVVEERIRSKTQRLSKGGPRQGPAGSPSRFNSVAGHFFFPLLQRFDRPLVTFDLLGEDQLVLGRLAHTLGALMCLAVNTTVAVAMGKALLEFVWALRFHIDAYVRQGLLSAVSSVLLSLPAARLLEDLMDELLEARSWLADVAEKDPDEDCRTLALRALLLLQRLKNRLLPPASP
UniProt Q86W42: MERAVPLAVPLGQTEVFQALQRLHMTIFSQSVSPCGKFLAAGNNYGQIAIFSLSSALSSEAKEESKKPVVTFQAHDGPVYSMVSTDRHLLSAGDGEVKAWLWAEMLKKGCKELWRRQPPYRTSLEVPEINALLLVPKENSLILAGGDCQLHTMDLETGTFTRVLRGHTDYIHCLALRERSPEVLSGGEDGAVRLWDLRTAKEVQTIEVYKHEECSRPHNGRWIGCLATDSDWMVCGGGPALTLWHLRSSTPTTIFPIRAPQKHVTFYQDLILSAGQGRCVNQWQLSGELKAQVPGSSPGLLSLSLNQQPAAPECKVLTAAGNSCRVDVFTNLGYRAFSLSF
UniProt Q96RS0: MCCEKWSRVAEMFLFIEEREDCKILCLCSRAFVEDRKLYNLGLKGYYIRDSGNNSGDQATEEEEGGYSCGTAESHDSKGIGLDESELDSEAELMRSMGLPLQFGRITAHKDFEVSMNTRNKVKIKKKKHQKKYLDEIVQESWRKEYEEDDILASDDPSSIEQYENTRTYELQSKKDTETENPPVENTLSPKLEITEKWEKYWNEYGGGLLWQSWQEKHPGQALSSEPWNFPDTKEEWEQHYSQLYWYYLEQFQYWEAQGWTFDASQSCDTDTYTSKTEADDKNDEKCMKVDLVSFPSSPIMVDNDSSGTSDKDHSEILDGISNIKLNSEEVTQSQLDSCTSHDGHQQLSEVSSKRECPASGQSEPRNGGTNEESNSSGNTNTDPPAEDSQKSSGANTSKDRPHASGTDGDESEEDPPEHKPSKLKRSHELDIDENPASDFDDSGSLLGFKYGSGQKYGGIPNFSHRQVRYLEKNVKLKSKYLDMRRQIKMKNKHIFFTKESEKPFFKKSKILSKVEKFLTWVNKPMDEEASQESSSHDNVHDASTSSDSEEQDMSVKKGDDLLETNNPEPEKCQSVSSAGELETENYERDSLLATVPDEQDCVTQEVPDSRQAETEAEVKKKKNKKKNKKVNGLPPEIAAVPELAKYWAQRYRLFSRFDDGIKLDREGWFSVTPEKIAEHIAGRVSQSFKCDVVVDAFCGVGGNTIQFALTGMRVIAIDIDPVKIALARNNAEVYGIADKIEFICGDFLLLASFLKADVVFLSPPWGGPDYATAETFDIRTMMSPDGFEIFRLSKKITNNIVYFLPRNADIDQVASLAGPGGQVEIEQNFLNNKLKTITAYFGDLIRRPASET
UniProt P17987, whole entry, looked up: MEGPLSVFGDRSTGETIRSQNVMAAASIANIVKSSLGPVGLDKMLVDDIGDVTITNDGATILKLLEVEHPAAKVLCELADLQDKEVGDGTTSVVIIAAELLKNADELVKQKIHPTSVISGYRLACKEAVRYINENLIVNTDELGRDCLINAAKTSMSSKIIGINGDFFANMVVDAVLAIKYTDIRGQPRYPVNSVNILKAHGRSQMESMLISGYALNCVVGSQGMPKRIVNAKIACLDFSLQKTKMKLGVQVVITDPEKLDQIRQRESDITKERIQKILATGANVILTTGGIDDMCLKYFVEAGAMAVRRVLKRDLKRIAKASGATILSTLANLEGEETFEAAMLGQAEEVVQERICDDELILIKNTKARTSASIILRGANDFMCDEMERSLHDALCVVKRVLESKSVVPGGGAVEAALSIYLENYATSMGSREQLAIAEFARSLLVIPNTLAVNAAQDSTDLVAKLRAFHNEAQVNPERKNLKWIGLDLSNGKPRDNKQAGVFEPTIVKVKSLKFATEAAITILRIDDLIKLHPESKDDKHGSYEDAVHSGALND
UniProt Q9NQ88: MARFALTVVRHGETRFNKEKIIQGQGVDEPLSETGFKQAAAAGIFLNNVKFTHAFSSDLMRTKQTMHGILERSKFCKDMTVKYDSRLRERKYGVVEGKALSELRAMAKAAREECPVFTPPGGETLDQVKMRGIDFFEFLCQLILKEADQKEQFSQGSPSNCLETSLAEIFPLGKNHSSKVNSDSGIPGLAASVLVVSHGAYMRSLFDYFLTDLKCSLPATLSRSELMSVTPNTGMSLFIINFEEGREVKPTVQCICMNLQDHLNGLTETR
UniProt P04183: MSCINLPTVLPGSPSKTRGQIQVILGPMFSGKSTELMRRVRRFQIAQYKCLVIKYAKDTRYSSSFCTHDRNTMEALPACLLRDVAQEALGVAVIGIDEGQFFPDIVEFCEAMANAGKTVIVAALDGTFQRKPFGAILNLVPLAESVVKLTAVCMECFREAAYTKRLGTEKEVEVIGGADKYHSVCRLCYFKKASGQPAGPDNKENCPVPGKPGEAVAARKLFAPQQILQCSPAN
UniProt Q9NXF1: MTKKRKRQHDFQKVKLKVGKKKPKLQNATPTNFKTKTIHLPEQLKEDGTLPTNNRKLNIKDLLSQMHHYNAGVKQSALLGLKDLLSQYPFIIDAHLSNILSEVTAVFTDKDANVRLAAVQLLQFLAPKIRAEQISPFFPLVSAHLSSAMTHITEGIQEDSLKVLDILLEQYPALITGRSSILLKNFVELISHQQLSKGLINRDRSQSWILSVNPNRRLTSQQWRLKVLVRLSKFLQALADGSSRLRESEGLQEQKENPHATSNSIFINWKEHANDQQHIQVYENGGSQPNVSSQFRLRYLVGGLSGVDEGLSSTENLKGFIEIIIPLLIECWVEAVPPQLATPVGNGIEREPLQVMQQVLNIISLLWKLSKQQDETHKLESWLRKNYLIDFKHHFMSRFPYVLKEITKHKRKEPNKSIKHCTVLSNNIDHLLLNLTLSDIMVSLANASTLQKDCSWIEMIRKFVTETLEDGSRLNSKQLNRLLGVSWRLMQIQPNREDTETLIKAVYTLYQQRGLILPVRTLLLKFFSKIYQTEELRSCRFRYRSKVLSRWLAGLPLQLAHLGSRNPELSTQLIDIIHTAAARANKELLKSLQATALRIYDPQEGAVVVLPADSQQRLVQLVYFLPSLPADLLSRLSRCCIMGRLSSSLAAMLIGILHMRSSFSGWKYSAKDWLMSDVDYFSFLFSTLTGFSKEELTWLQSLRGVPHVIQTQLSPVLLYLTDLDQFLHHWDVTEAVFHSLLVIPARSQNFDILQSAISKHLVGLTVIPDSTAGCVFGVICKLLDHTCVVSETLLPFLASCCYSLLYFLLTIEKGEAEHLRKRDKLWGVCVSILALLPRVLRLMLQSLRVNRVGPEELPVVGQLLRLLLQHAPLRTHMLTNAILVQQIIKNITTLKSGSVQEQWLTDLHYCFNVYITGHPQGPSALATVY

Some of the results follow.
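Also: competitive chemoproteomic profiling in live THP-1 cells with an iodoacetamide desthiobiotin (IA-DTB) probe, comparing probe-labelled peptide intensities in compound-treated cells against DMSO-treated controls.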

Compound in the assay: CC1Cc2ccccc2N1C(=O)C1CCCN(C1)C(=O)CCl (mixture of isomers) [TRIM25 ligand 11 (diastereomer mixture)]
Nature of the assay: probe-labelled cysteine peptide fold change vs DMSO (competition) (log2 fold change); higher = less target engagement (more negative = stronger competition). The following applies: 50 µM; THP-1; incubation time: 4 h.
Regarding “TLN1_Q9Y490_1363_ECDNALRELETVR (UniProt Q9Y490)”, the “probe-labelled cysteine peptide fold change” value is -0.378.
With “THOP1_P52888_682_GLQVGGCEPEPQVC (UniProt P52888)” the figure was -0.0643.
As for “TIMELESS_Q9UNS1_606_IQDCLLAGQAPQALTLLR (UniProt Q9UNS1)”, the figure is -0.0231; as for “TIMM17B_O60830_17_IVDDCGGAFTMGVIGGGVFQAIK (UniProt O60830)”, -0.246.
As to “THSD7A_Q9UPZ6_1036_CNSHGYIEEACIIPCPSDCK (UniProt Q9UPZ6)”, the “probe-labelled cysteine peptide fold change” value was -0.111.
With “TFCP2_Q12800_72_ILPFQYVLCAATSPAVK (UniProt Q12800)” the figure was 0.193; with “TELO2_Q9Y4R8_222_ACVHGR (UniProt Q9Y4R8)”, 0.0343; with “THAP12_O43422_68_HFETSMICR (UniProt O43422)”, 0.109.
As for “THADA_Q6YHU6_464_YTCLGCLVECIGVEHILAIDK (UniProt Q6YHU6)”, the figure is 0.382.
As for “THOC6_Q86W42_279_CVNQWQLSGELK (UniProt Q86W42)”, the figure is 0.0906; as for “TGS1_Q96RS0_357_ECPASGQSEPR (UniProt Q96RS0)”, -0.0313; as for TECR_Q9NZ01_18_LCFLDK (UniProt Q9NZ01), -0.146.
For “THOC6_Q86W42_148_ENSLILAGGDCQLHTMDLETGTFTR (UniProt Q86W42)”, the “probe-labelled cysteine peptide fold change” value is -0.0106.
Consider “TCF25_Q9BQ70_540_EPATMSWLEENVHEVLQAVDAGDPAVEACENRR (UniProt Q9BQ70)”, for which the “probe-labelled cysteine peptide fold change” value is -0.103.
With “TCP1_P17987_236_IACLDFSLQK (UniProt P17987)” the figure was 0.115; with “TKFC_Q3LXA3_13+24_LVNSVAGCADDALAGLVACNPNLQLLQGHR (UniProt Q3LXA3)”, 0.518.
As for “THOC6_Q86W42_314_AQVPGSSPGLLSLSLNQQPAAPECK (UniProt Q86W42)”, the figure is 0.0557; as for “THOC1_Q96FV9_156_SQNTVFCGR (UniProt Q96FV9)”, 0.0635; as for “THOC2_Q8NI27_1031_VFSDIIYTVASCTENEASR (UniProt Q8NI27)”, 0.0155.
With “TEX264_Q9Y6I9_182_LEIYQEDQIHFMCPLAR (UniProt Q9Y6I9)” the figure was 0.0482; with “THAP10_Q9P2Z0_171_QAAASQITCENELVQTQPHADNPSNTVTSVPTHCEEGPVHK (UniProt Q9P2Z0)”, -0.261.
Consider “TIGAR_Q9NQ88_161_EQFSQGSPSNCLETSLAEIFPLGK (UniProt Q9NQ88)”, for which the “probe-labelled cysteine peptide fold change” value was -0.214.
As for “THOP1_P52888_175_KLSLLCIDFNK (UniProt P52888)”, the figure is -0.106.
As for “TKT_P29401_225_RCEAFGWHAIIVDGHSVEELCK (UniProt P29401)”, the figure is 0.0425.
Regarding TES_Q9UGI8_164_CHELSPR (UniProt Q9UGI8), the “probe-labelled cysteine peptide fold change” value was -0.146.
As for “TCIRG1_Q13488_238+241_KITDCFHCHVFPFLQQEEAR (UniProt Q13488)”, the figure is -0.122; as for TK1_P04183_185_YHSVCR (UniProt P04183), 0.164.
As for “THBS1_P07996_657_NPCTDGTHDCNK (UniProt P07996)”, the figure is 0.144; as for “TIMM29_Q9BSF4_182_DCDINDDEFLHLPAHLR (UniProt Q9BSF4)”, 0.0365; as for “TFB2M_Q9H5Q4_149_VIHCDFFK (UniProt Q9H5Q4)”, 0.0488.
As for “TKFC_Q3LXA3_155_GLCGTVLIHK (UniProt Q3LXA3)”, the figure is -0.0329; as for “THEMIS2_Q5TEJ8_355_DCEGEREENPEFTSLAVGDR (UniProt Q5TEJ8)”, -0.16.
As to “TEPSIN_Q96N21_295_GTSECTQLR (UniProt Q96N21)”, the “probe-labelled cysteine peptide fold change” value was 0.179.
With “TCF20_Q9UGU0_1918_YHYPCAIDADCLLHEENFSVR (UniProt Q9UGU0)” the figure was -0.108.
As for “TEX10_Q9NXF1_454_DCSWIEMIR (UniProt Q9NXF1)”, the figure is 0.212; as for “TELO2_Q9Y4R8_30_EAIHALSSSEDGGHIFCTLESLKR (UniProt Q9Y4R8)”, -0.231; as for “TCP1_P17987_296_ILATGANVILTTGGIDDMCLK (UniProt P17987)”, -0.0533.
For “TGFBR1_P36897_71_VIHNSMCIAEIDLIPR (UniProt P36897)”, the “probe-labelled cysteine peptide fold change” value was -0.0559.
